Measured values from patent US20240308878A1, “WATER TREATMENT SYSTEM, WATER TREATMENT METHOD, AND AMINE SOLUTION” (KABUSHIKI KAISHA TOSHIBA, priority 2023, published 2024).
Where “and” joins values, the source holds several entries; their conditions need not be identical. Equal entries are not always repeated.

Legend:
[1] = Salt concentration / salt removal test: 10 wt % NaCl solution mixed with amine at room temperature, supernatant Cl by ion chromatography; format: physicochemical; details: for Concentration/Precipition: liquid concentrated phase or solid precipitate; for Salt Removal Rate 1: first test
[2] = Same salt removal test repeated with the amine phase recovered from the heated supernatant; format: physicochemical; details: recovered amine phase reused
[3] = S/F (solvent/feed volume ratio) 4.0, room temperature

Row | Compound | salt concentration of the concentrate separated in the lower phase ([1]; S/F 4.0) | Concentration/Precipition ([1]; S/F 4.0) | salt concentration of the concentrate separated in the lower phase ([1]; S/F 6.0) | volume of the lower phase, of the volume of the input aqueous phase ([1]; S/F 6.0) | Concentration/Precipition ([1]; S/F 6.0) | Concentration/Precipition ([1]; S/F 7.0) | Concentration/Precipition ([1]; S/F 10.0) | Salt Concentration of Concentrate ([1]; Table 1, S/F 4.0) | Salt Concentration of Concentrate ([1]; Table 1, S/F 6.0) | Salt Removal Rate 1 ([1]; S/F 6.0, room temperature) | Salt Removal Rate 1 ([1]; S/F 7.0, room temperature) | Salt Removal Rate 1 ([1]; S/F 10.0, room temperature) | Salt Removal Rate 1 [1, 3] | Salt Removal Rate 2 ([2]; S/F 4.0) | concentration of the lower phase being separated ([2]; S/F 4.0) | Salt Removal Rate 2 ([2]; S/F 6.0) | concentration of the lower phase being separated ([2]; S/F 6.0) | Salt Removal Rate 2 ([2]; S/F 7.0) | Salt Removal Rate 2 ([2]; S/F 10.0) | also measured
1 | C1CCN(CCCN2CCCC2)C1 [chemical formula (1-2)] | 21.0 wt % | Concentration | 25.9 wt % | 54% | Concentration | Precipition | Precipition | 21.0% | 25.9% | 98.7% | 99.0% | 99.0% | 97% | 97.5% | 21.2 wt % | 98.5% | 25.9 wt % | 99.2% | 99.0% | volume of the lower phase, of the volume of the input aqueous phase ([1]; S/F 4.0): 52%
2 | CCOC(=O)N1CCN(CCCN2CCN(C(=O)OCC)CC2)CC1 [chemical formula (2-1)] | 22.0 wt % | Concentration | 25.5 wt % | 50% | Concentration | Precipition | Precipition | 21.0% | 25.9% | 98.3% and 98.7% | 98.3% and 99.0% | 99.0% | 96.5% and 97.0% | 97.5% | 21.2 wt % | 99.0% and 98.5% | 25.3 wt % | 99.2% | 99.0% | 
3 | CC(C)NC(C)C [diisopropylamine, reference compound] | 15.0 wt % | Concentration |  |  |  |  | Concentration | 15.0% |  |  |  |  |  |  |  |  |  |  |  | salt concentration of the concentrate separated in the lower phase ([1]; S/F 10.0): 24.0 wt %; salt concentration of the concentrate separated in the lower phase ([1]; S/F 15.0): 25.9 wt %; Concentration/Precipition ([1]; S/F 15.0): Concentration; Salt Concentration of Concentrate ([1]; Table 1, S/F 10.0): 24.0%; Salt Concentration of Concentrate ([1]; Table 1, S/F 15.0): 25.9%
